Publication PMC5013389
These are yes or no findings as the source states them, for the method shown. In cells and extracts the contact can be indirect. Some binding calls cover weakened binding; strength is not graded here. Where a sequence is shown, tags or fusion partners need not be part of it.

Amino acid sequences for entries named in this document (tags omitted).
UniProt O14733: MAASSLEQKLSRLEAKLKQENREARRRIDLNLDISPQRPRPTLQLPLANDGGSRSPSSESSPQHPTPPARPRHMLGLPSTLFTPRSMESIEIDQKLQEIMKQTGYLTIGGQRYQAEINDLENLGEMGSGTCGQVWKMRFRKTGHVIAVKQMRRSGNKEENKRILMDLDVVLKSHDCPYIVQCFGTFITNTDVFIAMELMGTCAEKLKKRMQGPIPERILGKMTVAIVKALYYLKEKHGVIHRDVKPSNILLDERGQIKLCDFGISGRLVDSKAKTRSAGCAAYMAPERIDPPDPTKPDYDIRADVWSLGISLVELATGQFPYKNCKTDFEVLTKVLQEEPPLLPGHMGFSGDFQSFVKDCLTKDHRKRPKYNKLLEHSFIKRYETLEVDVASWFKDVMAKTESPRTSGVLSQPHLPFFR

T1: MKK4-V1 (full length MKK4 fused to the V1 fragment of Venus YFP) (UniProt P45985)
T1 sequence: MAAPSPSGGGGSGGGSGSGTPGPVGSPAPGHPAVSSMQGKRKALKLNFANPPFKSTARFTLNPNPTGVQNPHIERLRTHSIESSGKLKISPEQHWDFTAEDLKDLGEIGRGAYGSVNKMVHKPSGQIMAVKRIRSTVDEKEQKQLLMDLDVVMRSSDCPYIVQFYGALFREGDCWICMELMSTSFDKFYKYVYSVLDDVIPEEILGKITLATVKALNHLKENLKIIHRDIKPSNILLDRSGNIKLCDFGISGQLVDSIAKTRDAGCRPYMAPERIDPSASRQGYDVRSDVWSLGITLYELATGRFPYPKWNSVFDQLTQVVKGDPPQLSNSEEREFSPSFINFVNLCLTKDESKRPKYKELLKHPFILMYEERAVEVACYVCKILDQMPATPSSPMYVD

T2: MKK6-V1 (full length MKK6 fused to the V1 fragment of Venus YFP) (UniProt P52564)
T2 sequence: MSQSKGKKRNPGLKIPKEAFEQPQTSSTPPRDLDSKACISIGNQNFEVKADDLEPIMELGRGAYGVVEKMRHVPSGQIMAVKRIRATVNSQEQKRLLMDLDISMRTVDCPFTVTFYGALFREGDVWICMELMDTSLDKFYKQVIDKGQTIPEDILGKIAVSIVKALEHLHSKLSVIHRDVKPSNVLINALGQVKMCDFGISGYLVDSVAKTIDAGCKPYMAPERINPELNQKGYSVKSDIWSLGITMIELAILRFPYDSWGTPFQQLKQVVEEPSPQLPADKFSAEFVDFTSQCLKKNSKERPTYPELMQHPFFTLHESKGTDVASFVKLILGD

B1: TRIB1-V2 (full length tribbles-1 fused to the V2 fragment of Venus YFP) (protein, UniProt Q96RU8 1-372)
chain: MRVGPVRSAMSGASQPRGPALLFPATRGVPAKRLLDADDAAAVAAKCPRLSECSSPPDYLSPPGSPCSPQPPPAAPGAGGGSGSAPGPSRIADYLLLPLAEREHVSRALCIHTGRELRCKVFPIKHYQDKIRPYIQLPSHSNITGIVEVILGETKAYVFFEKDFGDMHSYVRSRKRLREEEAARLFKQIVSAVAHCHQSAIVLGDLKLRKFVFSTEERTQLRLESLEDTHIMKGEDDALSDKHGCPAYVSPEILNTTGTYSGKAADVWSLGVMLYTLLVGRYPFHDSDPSALFSKIRRGQFCIPEHISPKARCLIRSLLRREPSERLTAPEILLHPWFESVLEPGYIDSEIGTSDQIVPEYQEDSDISSFFC
B2: IκBα-V2 (IκBα fused to the V2 fragment of Venus YFP), P25963 1-317 (protein)
chain: MFQAAERPQEWAMEGPRDGLKKERLLDDRHDSGLDSMKDEEYEQMVKELQEIRLEPQEVPRGSEPWKQQLTEDGDSFLHLAIIHEEKALTMEVIRQVKGDLAFLNFQNNLQQTPLHLAVITNQPEIAEALLGAGCDPELRDFRGNTPLHLACEQGCLASVGVLTQSCTTPHLHSILKATNYNGHTCLHLASIHGYLGIVELLVSLGADVNAQEPCNGRTALHLAVDLQNPDLVSLLLKCGADVNRVTYQGYSPYQLTWGRPSTRIQQQLGQLTLENLQMLPESEDEESYDTESEFTEFTEDELPYDDCVFGGQRLTL
B3: TRIB2-V2 (full length tribbles-2 fused to the V2 fragment of Venus YFP) (protein, UniProt Q92519 1-343)
chain: MNIHRSTPITIARYGRSRNKTQDFEELSSIRSAEPSQSFSPNLGSPSPPETPNLSHCVSCIGKYLLLEPLEGDHVFRAVHLHSGEELVCKVFDISCYQESLAPCFCLSAHSNINQITEIILGETKAYVFFERSYGDMHSFVRTCKKLREEEAARLFYQIASAVAHCHDGGLVLRDLKLRKFIFKDEERTRVKLESLEDAYILRGDDDSLSDKHGCPAYVSPEILNTSGSYSGKAADVWSLGVMLYTMLVGRYPFHDIEPSSLFSKIRRGQFNIPETLSPKAKCLIRSILRREPSERLTSQEILDHPWFSTDFSVSNSAYGAKEVSDQLVPDVNMEENLDPFFN
B4: untagged TRIB-1 (protein, UniProt Q96RU8 1-372)
chain: B1 chain
B5: untagged TRIB-2 (protein, UniProt Q92519 1-343)
chain: B3 chain

Assays:
[1] = target: MKK7-V1 (full length MKK7 fused to the V1 fragment of Venus YFP) (UniProt O14733); assay: split reporter; Venus YFP PCA in co-transfected HeLa cells, signal quantified by flow cytometry 24 h after transfection; serum-starved cells with or without IL-1 (0.1 nM, 60 min)
[2] = target: T1, MKK4-V1 (full length MKK4 fused to the V1 fragment of Venus YFP); assay: split reporter; Venus YFP protein-fragment complementation assay (PCA): MKK-V1 and TRIB-V2 constructs (full length or truncated) co-transfected into HeLa cells, fluorescent complexes seen by fluorescence microscopy
[3] = target: T2, MKK6-V1 (full length MKK6 fused to the V1 fragment of Venus YFP); assay: as above
[4] = target: MKK7-V1 (full length MKK7 fused to the V1 fragment of Venus YFP) (UniProt O14733); assay: as above
[5] = target: T1, MKK4-V1 (full length MKK4 fused to the V1 fragment of Venus YFP); assay: split reporter; competitive PCA in HeLa cells: MKK-V1 and TRIB-V2 co-transfected with an increasing dose of an untagged competitor plasmid (ERK, p38 or TRIB); mean fluorescence by flow cytometry 24 h after transfection; doses are plasmid amounts relative to TRIB-V2
[6] = target: RelA-V1 (NF-κB/RelA fused to the V1 fragment of Venus YFP), Q04206; assay: split reporter; Venus YFP PCA in co-transfected HeLa cells, signal quantified by flow cytometry 24 h after transfection; serum-starved cells with or without IL-1 (0.1 nM, 60 min); conditions: remark: other sources report otherwise

Binder | binding [1] | binding [2] | binding [3] | binding [4] | binding [5] | binding [6]
B1 | binds | binds | binds | binds | binds | –
B2 | – | – | – | – | – | binds
B3 | binds | binds | binds | binds | binds | –
B4 | – | – | – | – | binds | –
B5 | – | – | – | – | binds | –
